Results are given in words; binding and its absence hold for the method and conditions named. Some binding calls cover weakened binding; strength is not graded here. Where a sequence is shown, tags or fusion partners need not be part of it.
Tests used:
[1] = biological target: fibrinogen (Tisseel, Baxter AG, Vienna) (UniProt P02671); assay: ELISA on coated fibrinogen
[2] = biological target: fibrinogen (Tisseel, Baxter AG, Vienna) (UniProt P02671); assay: SPR, fibrinogen amine-coupled to a gold chip
[3] = biological target: fibrin (plate-coated Tisseel fibrinogen treated with thrombin) (UniProt P02671); assay: ELISA on fibrin (coated fibrinogen treated with thrombin)
[4] = biological target: fibrinogen (Tisseel, Baxter AG, Vienna) (UniProt P02671); assay: ELISA on coated fibrinogen, anti-His6-peroxidase detection
[5] = biological target: fibrinogen (Tisseel, Baxter AG, Vienna) (UniProt P02671); assay: SPR, fibrinogen amine-coupled to a gold chip; fitted association curves

The chains behind the UniProt entries cited, without tags or fusion partners. Where a name states a change or a piece, a line headed by the entry shows the natural chain unless it says otherwise.
UniProt P02671: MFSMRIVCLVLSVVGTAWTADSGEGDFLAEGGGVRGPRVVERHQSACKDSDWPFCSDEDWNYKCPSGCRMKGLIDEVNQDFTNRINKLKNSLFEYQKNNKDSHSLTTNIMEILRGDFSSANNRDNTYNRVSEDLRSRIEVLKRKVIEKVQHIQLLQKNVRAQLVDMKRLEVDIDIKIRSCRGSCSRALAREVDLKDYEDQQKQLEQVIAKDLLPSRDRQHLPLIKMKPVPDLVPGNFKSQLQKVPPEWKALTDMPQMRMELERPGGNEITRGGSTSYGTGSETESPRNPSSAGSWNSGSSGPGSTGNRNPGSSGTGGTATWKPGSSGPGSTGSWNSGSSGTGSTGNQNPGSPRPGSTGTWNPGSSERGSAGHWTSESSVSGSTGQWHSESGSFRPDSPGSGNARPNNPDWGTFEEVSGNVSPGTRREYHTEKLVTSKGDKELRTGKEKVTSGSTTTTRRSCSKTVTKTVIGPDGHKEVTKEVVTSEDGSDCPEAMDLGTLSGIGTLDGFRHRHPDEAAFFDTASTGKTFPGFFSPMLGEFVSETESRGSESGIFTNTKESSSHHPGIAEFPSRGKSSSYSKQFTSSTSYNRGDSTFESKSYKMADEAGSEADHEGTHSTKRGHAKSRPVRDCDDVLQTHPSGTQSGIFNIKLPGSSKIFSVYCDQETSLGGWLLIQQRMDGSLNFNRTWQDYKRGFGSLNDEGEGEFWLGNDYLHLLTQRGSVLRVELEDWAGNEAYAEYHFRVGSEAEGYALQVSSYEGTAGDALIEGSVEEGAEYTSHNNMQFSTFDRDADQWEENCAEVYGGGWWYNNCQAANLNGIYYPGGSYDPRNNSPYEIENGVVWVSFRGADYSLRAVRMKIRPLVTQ

Measured: binding

VCANRYLAMKEDGRLLASKCVTDECFFFERLESNNYNTYRSRHHHHHH [hFGF-2 peptide pep2]
not listed: [5]
binds: all other assays above

FERLESNNYNTYRSRHHHHH [hFGF-2 peptide pep5 (20 aa), synthetic, with C-terminal 5x HIS-tag]
not listed: [5]
binds: all other assays above

B1: hFGF-2 peptide pep1 (peptide)
peptide: EERGVVSIKGVCANRYLAMKEDGRLLASKCVTDECFFFERLESNNYNTYRSRHHHHHH
not listed: [5]
binds: all other assays above

EDGRLLASKCVTDECFFFERLESNNYNTYRSRHHHHH [hFGF-2 peptide pep3 (37 aa), synthetic, with C-terminal 5x HIS-tag]
not listed: [5]
binds: all other assays above

KCVTDECFFFERLESNNYNTYRSRHHHHH [hFGF-2 peptide pep4 (29 aa), synthetic, with C-terminal 5x HIS-tag]
binds: [2] | [4] | [5]
